Measurements published in patent US9884813B1, “Pharmaceutically acceptable salts of B-guanidinopropionic acid with improved properties and uses thereof” (Rgenix, Inc., priority 2017, dated 2018).

Assay: Roller compaction feasibility (slugs, capsule fill)
Conditions: for Average Net Weight: size 0 capsule, roller compacted API
Description: Roller compaction feasibility was performed by producing slugs using a single station hand press then carefully hand milling those slugs so that all granules were small enough to pass through a size US 18 mesh. These granules were then filled into size 0 capsules by both the free flow and tamp method. A total of N=5 capsules were filled for each lot for each method. The average net fill weight results are given below in […]. The same issue was not seen when compressing the succinate salt form of β-GPA. Slugs produced around 1500 PSI produced slugs hard enough to be tested for hardness. The resulting slug parameters can be seen in Table 33.

| SMILES | Average Net Weight (Free Flow fill) [mg] | Average Net Weight (Tamp fill) [mg] | increase of maximum capsule fill weight after roller compaction (both free flow and tamp filled capsules) |
| --- | --- | --- | --- |
| N=C(N)NCCC(=O)O.N=C(N)NCCC(=O)O.O=C(O)CCC(=O)O [β-GPA succinate (2:1)] | 335.4 | 574.6 |  |
| N=C(N)NCCC(=O)O [β-GPA, β-Guanidinopropionic acid, reference compound] | 303.6 | 568.2 | roughly 100 mg |
